Assay [1] concerns the target human PTK7 protein (extracellular sequence of human PTK7 with C-terminal 6×His tag) (human) (UniProt Q13308). Description: ELISA, coated human PTK7-His protein.
Assay [2] deals with human PTK7 on cells (tumor cells endogenously expressing PTK7; CHO-hPTK7, CHO-S-hPTK7 and 293T-hPTK7 overexpression cells) (human) (UniProt Q13308). Description: flow cytometry on H1299 cells, PE-labelled secondary antibody.

Amino acid sequences for entries named in this document (tags omitted). A change or cut given only in a name is not applied to a line headed by its entry. Chains listed by the source or under a name are the forms on record and can include a tag or linker. Residues count along the entry.
UniProt Q13308, residues 31-1070: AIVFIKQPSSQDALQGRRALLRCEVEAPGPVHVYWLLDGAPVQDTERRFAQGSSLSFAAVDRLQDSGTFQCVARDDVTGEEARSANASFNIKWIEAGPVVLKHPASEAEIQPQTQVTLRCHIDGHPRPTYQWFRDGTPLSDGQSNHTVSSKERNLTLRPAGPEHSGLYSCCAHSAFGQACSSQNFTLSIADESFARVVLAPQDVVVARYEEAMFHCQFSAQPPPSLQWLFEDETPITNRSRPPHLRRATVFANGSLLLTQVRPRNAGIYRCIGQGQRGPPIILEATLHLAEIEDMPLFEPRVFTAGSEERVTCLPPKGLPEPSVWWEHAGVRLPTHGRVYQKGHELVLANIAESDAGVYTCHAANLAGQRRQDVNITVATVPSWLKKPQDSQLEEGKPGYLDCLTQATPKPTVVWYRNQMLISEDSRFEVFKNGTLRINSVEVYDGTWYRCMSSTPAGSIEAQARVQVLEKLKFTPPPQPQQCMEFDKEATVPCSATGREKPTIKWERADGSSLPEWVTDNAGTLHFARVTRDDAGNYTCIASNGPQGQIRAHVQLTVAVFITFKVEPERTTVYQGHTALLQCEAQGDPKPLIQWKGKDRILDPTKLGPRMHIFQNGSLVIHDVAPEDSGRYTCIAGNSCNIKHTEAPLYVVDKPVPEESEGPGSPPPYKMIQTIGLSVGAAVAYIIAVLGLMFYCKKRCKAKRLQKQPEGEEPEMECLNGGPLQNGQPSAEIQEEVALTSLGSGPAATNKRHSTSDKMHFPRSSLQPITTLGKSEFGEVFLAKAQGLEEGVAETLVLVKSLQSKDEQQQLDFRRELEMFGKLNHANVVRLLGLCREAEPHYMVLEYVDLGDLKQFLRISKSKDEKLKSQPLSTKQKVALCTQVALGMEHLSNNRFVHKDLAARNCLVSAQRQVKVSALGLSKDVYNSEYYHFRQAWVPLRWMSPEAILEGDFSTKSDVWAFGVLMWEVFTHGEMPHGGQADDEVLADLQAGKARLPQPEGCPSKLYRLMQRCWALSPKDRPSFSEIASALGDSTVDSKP
human PTK7 protein (extracellular sequence of human PTK7 with C-terminal 6×His tag) (Q13308, form named): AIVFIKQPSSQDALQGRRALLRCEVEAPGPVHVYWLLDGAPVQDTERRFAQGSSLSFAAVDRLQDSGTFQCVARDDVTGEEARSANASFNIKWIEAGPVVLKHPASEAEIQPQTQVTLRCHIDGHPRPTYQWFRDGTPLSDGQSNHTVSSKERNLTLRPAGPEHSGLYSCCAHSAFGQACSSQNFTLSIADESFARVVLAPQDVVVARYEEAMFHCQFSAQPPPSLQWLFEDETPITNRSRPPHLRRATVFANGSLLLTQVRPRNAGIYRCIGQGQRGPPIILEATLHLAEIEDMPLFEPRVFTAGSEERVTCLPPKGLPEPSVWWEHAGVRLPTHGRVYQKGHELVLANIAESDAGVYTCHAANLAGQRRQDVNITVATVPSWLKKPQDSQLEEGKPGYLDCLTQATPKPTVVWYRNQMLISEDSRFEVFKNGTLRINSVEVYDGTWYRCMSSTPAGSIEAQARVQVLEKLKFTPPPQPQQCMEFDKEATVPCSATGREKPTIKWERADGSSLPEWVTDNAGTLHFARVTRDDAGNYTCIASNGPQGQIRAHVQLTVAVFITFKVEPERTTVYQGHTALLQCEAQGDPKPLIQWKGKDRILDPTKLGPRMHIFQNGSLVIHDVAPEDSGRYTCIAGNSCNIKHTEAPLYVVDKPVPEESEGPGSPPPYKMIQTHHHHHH

No constants are given. Whether binding was seen depends on the method and setting. Some results given as binding are weak or reduced against the parent protein; the word gives no strength.

B1: 64A10-CH (anti-human PTK7 chimeric antibody of 64A10) (antibody, human IgG1, kappa, V domains shown)
VH: QVQLKESGPVLVAPSQSLSITCTVSGFSLTSYGVYWVRQPPGKGPEWLGVIWTSGNTNYNSALMSRLSISKDNSKSQVFLKMNSLQTDDTAMYYCVKHDGGNYVGVMNYWGQGTSVTVSS
VL: DIQMTQSPATLSVTPGDRVSLSCRASQSISDYLHWYQQKSQESPRLLIKYASQSISGIPSRFSGSGSGSDFTLSINSVEPEDVGVYYCQNGHSFPPTFGGGTKLEIKR
As to B1, the binding entry in assay [1] and in assay [2] was “binds” throughout.

B2: 101A6-CH (anti-human PTK7 chimeric antibody of 101A6) (antibody, human IgG1, kappa, V domains shown)
VH: EVKLVESGGGLVQPGGSLSLSCAASGFTFTDYYLSWVRQPPGKALEWLALIRNKANGYTTEYSASVKGRFTISRDSSQSILYLQMDALRAEDSATYYCARDTLAAYWGQGTSVTVSS
VL: DIVMTQSHKFMSTSVGDRVSFTCKASQDVGSAVIWYQQKPGQSPKLLIYWASTRHTGVPDRFTGSGSGTDFTLTISNVQSEDLADYFCQQYSSYPLTFGAGTKLEIKR
For the molecule B2, the binding entry in assay [1] and in assay [2] was “binds” each time.

The values above are taken from patent publication US20260250420A1.
